PubChem BioAssay AID1259279 | Sanger Institute | 2017
Screen: 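Find kinases whose loss works with colorectal cancer drugs to kill cells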 (primary screen). Cells: LS180 human colorectal cancer cells. Reagents: siRNA pool against human genes. Conditions: anchor drug BYL719 at 1 µM, cetuximab at 5 µg/ml or trametinib at 10 nM, or DMSO vehicle only. Detection: 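Viability as a fraction of non-targeting control and as a replicate-averaged robust z-score, with separate synergy scores for BYL719, cetuximab and trametinib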. Scale: viability z-score, no drug: higher = more viable cells after knock-down; viability, no drug: higher = more viable cells. Hit rule: 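a knock-down is called active, meaning essential, if its viability z-score in vehicle alone falls below -3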. Calls: active = essential (knock-down alone cuts viability); inactive = no change without drug.
The deposit covers 794 reagents; shown is an unselected part. Over the whole deposit, 11 (1.4%) got an active call. 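Calls reflect knock-down alone in the vehicle arm, not drug synergy.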 A number with no mark means an inactive call. No viability above 1 is reported: the scale is capped. Further read-outs or replicates are left out here. Not stated in the record: the amount of reagent, the time to read-out.

gene symbol | viability z-score, no drug | viability, no drug (fraction)
PIK3R3 | 0.86 | 1
COMMD3 | 0.86 | 1
AKT2 | 0.86 | 1
RYK | 0.86 | 1
PACSIN1 | -0.0668 | 0.899
ITPKA | 0.86 | 1
SRPK3 | 0.86 | 1
EIF2AK1 | 0.746 | 0.988
MAPK12 | 0.86 | 1
POMK | 0.619 | 0.974
ULK3 | 0.841 | 0.998
RPS6KA6 | -0.5 | 0.852
RPS6KA3 | 0.52 | 0.963
GALK1 | -0.783 | 0.821
JAK3 | 0.86 | 1
TAOK3 | -1.48 | 0.745
AXL | 0.126 | 0.92
EPHB3 | -0.364 | 0.867
RIPK4 | 0.86 | 1
CHEK2 | 0.86 | 1
PRPS1L1 | 0.187 | 0.927
PSKH2 | 0.86 | 1
AK5 | -1.42 | 0.752
BUB1B | -0.182 | 0.886
CDKL2 | 0.672 | 0.98
GSK3A | 0.113 | 0.919
ARID1A | 0.255 | 0.934
PFKM | -0.161 | 0.889
EGFR | 0.486 | 0.959
INSR | 0.238 | 0.932
LATS2 | 0.821 | 0.996
NME4 | 0.86 | 1
MAPK3 | 0.308 | 0.94
CDK16 | -2.03 | 0.685
CDK18 | -1.25 | 0.77
CAMKK1 | 0.446 | 0.955
MST1R | 0.415 | 0.952
CLK3 | -0.481 | 0.854
KALRN | 0.86 | 1
TYK2 | -0.413 | 0.861
ADPGK | 0.261 | 0.935
DSTYK | 0.86 | 1
DLG4 | 0.713 | 0.984
ETNK2 | -0.761 | 0.823
PHKA1 | 0.656 | 0.978
ALPK1 | 0.706 | 0.983
CDC7 | 0.86 | 1
TAF1L | 0.739 | 0.987
LMTK2 | 0.412 | 0.951
BMPR1B | 0.197 | 0.928

A few values from the entries so far.
Value of ETNK2 under “viability, no drug (fraction)”: 0.823
Value of EGFR under “viability z-score, no drug”: 0.486
CDK16, viability z-score, no drug → -2.03
Value of GALK1 in “viability z-score, no drug”: -0.783
EIF2AK1, viability, no drug (fraction) → 0.988
Value for DLG4 in “viability, no drug (fraction)”: 0.984
